Experimental data taken from patent publication US20180320217A1, “METHODS FOR SAMPLING AND MEASURING ORAL LAVAGE PROTEINS” (The Procter & Gamble Company, priority 2017, published 2018).

Test system: proteins in oral lavage
Experiment: Abundance of proteins in human oral lavage (SomaLogic), TABLE 1
Format: in vivo
Conditions: for Means (Original Scale) High bleeder BL: high bleeders (gingivitis); for Means (Original Scale) High bleeder BL / Means (Original Scale) Low bleeder BL: baseline; for Means (Original Scale) Low bleeder BL: low bleeders (healthy); for Fold Change High bleeder BL vs Low bleeder BL / Fold Change High bleeder W4 vs High bleeder BL: oral lavage
[1] = abundance in oral lavage, high bleeders, week 4 of investigative products
[2] = high bleeders vs low bleeders at baseline
[3] = week 4 of investigative products vs baseline, high bleeders
[4] = high bleeders, week 4 of treatment vs baseline
[5] = high vs low bleeders at baseline

## Interleukin-1 Receptor accessory protein
Abundance in oral lavage
  Means (Original Scale) High bleeder BL: 5433
  Means (Original Scale) Low bleeder BL: 1501
[1]
  Means (Original Scale) High bleeder W4: 2418
[2]
  Fold Change High bleeder BL vs Low bleeder BL: 3.72
[3]
  Fold Change High bleeder W4 vs High bleeder BL: 0.52

## Cofilin-1
Abundance in oral lavage
  Means (Original Scale) High bleeder BL: 1143
  Means (Original Scale) Low bleeder BL: 254
[1]
  Means (Original Scale) High bleeder W4: 622
[2]
  Fold Change High bleeder BL vs Low bleeder BL: 3.94
[3]
  Fold Change High bleeder W4 vs High bleeder BL: 0.62

## Chitotriosidase-1
Abundance in oral lavage
  Means (Original Scale) High bleeder BL: 58999
  Means (Original Scale) Low bleeder BL: 14176
[1]
  Means (Original Scale) High bleeder W4: 41470
[2]
  Fold Change High bleeder BL vs Low bleeder BL: 7.00
[3]
  Fold Change High bleeder W4 vs High bleeder BL: 0.70

## Galectin-7
Abundance in oral lavage
  Means (Original Scale) High bleeder BL: 697
  Means (Original Scale) Low bleeder BL: 219
[1]
  Means (Original Scale) High bleeder W4: 435
[2]
  Fold Change High bleeder BL vs Low bleeder BL: 2.83
[3]
  Fold Change High bleeder W4 vs High bleeder BL: 0.68

## Small ubiquitin-related modifier 3
Abundance in oral lavage
  Means (Original Scale) High bleeder BL: 42271
  Means (Original Scale) Low bleeder BL: 15775
[1]
  Means (Original Scale) High bleeder W4: 24878
[4]
  Fold Change High bleeder W4 vs High bleeder BL: 0.63
[5]
  Fold Change High bleeder BL vs Low bleeder BL: 3.03

## Plasminogen activator inhibitor 1
Abundance in oral lavage
  Means (Original Scale) High bleeder BL: 100
  Means (Original Scale) Low bleeder BL: 39
[1]
  Means (Original Scale) High bleeder W4: 67
[4]
  Fold Change High bleeder W4 vs High bleeder BL: 0.72
[5]
  Fold Change High bleeder BL vs Low bleeder BL: 2.40

## Ribosomal protein S6 kinase alpha-5
Abundance in oral lavage
  Means (Original Scale) High bleeder BL: 27
  Means (Original Scale) Low bleeder BL: 12
[1]
  Means (Original Scale) High bleeder W4: 18
[4]
  Fold Change High bleeder W4 vs High bleeder BL: 0.73
[5]
  Fold Change High bleeder BL vs Low bleeder BL: 2.12

## Mitogen-activated protein kinase 9
Abundance in oral lavage
  Means (Original Scale) High bleeder BL: 2969
  Means (Original Scale) Low bleeder BL: 1367
[1]
  Means (Original Scale) High bleeder W4: 1342
[2]
  Fold Change High bleeder BL vs Low bleeder BL: 1.74
[3]
  Fold Change High bleeder W4 vs High bleeder BL: 0.57

## Tyrosine-protein phosphatase non-receptor type substrate 1
Abundance in oral lavage
  Means (Original Scale) High bleeder BL: 5104
  Means (Original Scale) Low bleeder BL: 670
In vivo, po
  Means (Original Scale) High bleeder W4: 3229
[4]
  Fold Change High bleeder W4 vs High bleeder BL: 0.66
[5]
  Fold Change High bleeder BL vs Low bleeder BL: 12.44

## Mitogen-activated protein kinase 14
Abundance in oral lavage
  Means (Original Scale) High bleeder BL: 5862
  Means (Original Scale) Low bleeder BL: 596
[1]
  Means (Original Scale) High bleeder W4: 3068
[2]
  Fold Change High bleeder BL vs Low bleeder BL: 15.65
[3]
  Fold Change High bleeder W4 vs High bleeder BL: 0.60

## Heat shock protein beta-1
Abundance in oral lavage
  Means (Original Scale) High bleeder BL: 216
  Means (Original Scale) Low bleeder BL: 84
[1]
  Means (Original Scale) High bleeder W4: 124
[2]
  Fold Change High bleeder BL vs Low bleeder BL: 2.28
[3]
  Fold Change High bleeder W4 vs High bleeder BL: 0.61

## Hemopexin
Abundance in oral lavage
  Means (Original Scale) High bleeder BL: 2677
  Means (Original Scale) Low bleeder BL: 662
[1]
  Means (Original Scale) High bleeder W4: 1383
[2]
  Fold Change High bleeder BL vs Low bleeder BL: 6.00
[3]
  Fold Change High bleeder W4 vs High bleeder BL: 0.64

## Ephrin type-A receptor 2
Abundance in oral lavage
  Means (Original Scale) High bleeder BL: 47551
  Means (Original Scale) Low bleeder BL: 16730
[1]
  Means (Original Scale) High bleeder W4: 26305
[2]
  Fold Change High bleeder BL vs Low bleeder BL: 2.80
[3]
  Fold Change High bleeder W4 vs High bleeder BL: 0.59

## C-X-C motif chemokine 6
Abundance in oral lavage
  Means (Original Scale) High bleeder BL: 132
  Means (Original Scale) Low bleeder BL: 26
[1]
  Means (Original Scale) High bleeder W4: 45
[2]
  Fold Change High bleeder BL vs Low bleeder BL: 2.45
[3]
  Fold Change High bleeder W4 vs High bleeder BL: 0.63

## Neuregulin-1
Abundance in oral lavage
  Means (Original Scale) High bleeder BL: 251
  Means (Original Scale) Low bleeder BL: 107
[1]
  Means (Original Scale) High bleeder W4: 142
[2]
  Fold Change High bleeder BL vs Low bleeder BL: 2.07
[3]
  Fold Change High bleeder W4 vs High bleeder BL: 0.60

## Osteocalcin (YLYQWLGAPVPYPDPLEPRREVCELNPDCDELADHIGFQEAYRRFYGPV; UniProt P02818 52-100, looked up)
Abundance in oral lavage
  Means (Original Scale) High bleeder BL: 3206
  Means (Original Scale) Low bleeder BL: 986
[1]
  Means (Original Scale) High bleeder W4: 1808
[2]
  Fold Change High bleeder BL vs Low bleeder BL: 3.38
[3]
  Fold Change High bleeder W4 vs High bleeder BL: 0.63

## Thioredoxin domain-containing protein 12
Abundance in oral lavage
  Means (Original Scale) High bleeder BL: 33968
  Means (Original Scale) Low bleeder BL: 7236
[1]
  Means (Original Scale) High bleeder W4: 18352
[4]
  Fold Change High bleeder W4 vs High bleeder BL: 0.57
[5]
  Fold Change High bleeder BL vs Low bleeder BL: 6.16

## Stress-induced-phosphoprotein 1
Abundance in oral lavage
  Means (Original Scale) High bleeder BL: 16420
  Means (Original Scale) Low bleeder BL: 4297
[1]
  Means (Original Scale) High bleeder W4: 9806
[4]
  Fold Change High bleeder W4 vs High bleeder BL: 0.53
[5]
  Fold Change High bleeder BL vs Low bleeder BL: 5.59

## CD109 antigen
Abundance in oral lavage
  Means (Original Scale) High bleeder BL: 512
  Means (Original Scale) Low bleeder BL: 233
[1]
  Means (Original Scale) High bleeder W4: 302
[2]
  Fold Change High bleeder BL vs Low bleeder BL: 2.24
[3]
  Fold Change High bleeder W4 vs High bleeder BL: 0.61
